Our source for the binding values is paper PMC5794190.

No constants are given. Whether binding was seen depends on the method and setting. In cells and extracts the contact can be indirect. Binding can be weak; no strength is given. For some of these results: Tags and fused reporters may be left off the sequences shown.

Experiment in all cases: co-IP; anti-FLAG agarose on lysates of transfected HeLa, U2OS or HEK293T cells (NP-40 lysis buffer), elution with 3xFLAG peptide, western blot; in Fig 7A with co-transfected HA-TRIM25, in Fig 5C with co-transfected HA- and FLAG-TRIM25
The target of assay [1] is T1, 3xFLAG-HCMV-UL48 (amino acid residues 1-263), N-terminal catalytic domain (HCMV (human cytomegalovirus)) (UniProt P16785).
T1 sequence: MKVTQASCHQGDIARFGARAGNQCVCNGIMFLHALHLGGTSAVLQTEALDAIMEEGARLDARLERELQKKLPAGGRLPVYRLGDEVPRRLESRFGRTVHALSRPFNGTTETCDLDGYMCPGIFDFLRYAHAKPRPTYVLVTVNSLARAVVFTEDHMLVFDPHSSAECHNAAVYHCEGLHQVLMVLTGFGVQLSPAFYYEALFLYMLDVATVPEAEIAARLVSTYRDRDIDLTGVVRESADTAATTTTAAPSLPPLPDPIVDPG

In assay [2] the target is T2, 3xFLAG-KSHV-ORF64 (amino acid residues 1-205), N-terminal catalytic domain (KSHV) (UniProt Q2HR64).
T2 sequence: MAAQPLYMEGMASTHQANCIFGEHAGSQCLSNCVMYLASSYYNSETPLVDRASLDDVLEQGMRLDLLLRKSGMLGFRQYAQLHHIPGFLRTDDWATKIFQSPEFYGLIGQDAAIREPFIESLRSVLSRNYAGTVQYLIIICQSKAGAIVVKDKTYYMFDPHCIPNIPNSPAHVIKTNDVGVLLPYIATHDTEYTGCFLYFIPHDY

The target of assay [3] is FLAG-BPLF1C61A, catalytic mutant of the BPLF1 N-terminal domain (Epstein-Barr virus).

Take “14-3-3 (endogenous, detected with a pan-14-3-3 antibody)”: the binding entry in assay [1] and in assay [2] was “binds” each time.

B1: 14-3-3γ (protein, UniProt P61981 1-247)
chain: MVDREQLVQKARLAEQAERYDDMAAAMKNVTELNEPLSNEERNLLSVAYKNVVGARRSSWRVISSIEQKTSADGNEKKIEMVRAYREKIEKELEAVCQDVLSLLDNYLIKNCSETQYESKVFYLKMKGDYYRYLAEVATGEKRATVVESSEKAYSEAHEISKEHMQPTHPIRLGLALNYSVFYYEIQNAPEQACHLAKTAFDDAIAELDTLNEDSYKDSTLIMQLLRDNLTLWTSDQQDDDGGEGNN
In the case of B1, in assay [3], the binding entry is “binds”.

B2: 14-3-3η (protein, UniProt Q04917 1-246)
chain: MGDREQLLQRARLAEQAERYDDMASAMKAVTELNEPLSNEDRNLLSVAYKNVVGARRSSWRVISSIEQKTMADGNEKKLEKVKAYREKIEKELETVCNDVLSLLDKFLIKNCNDFQYESKVFYLKMKGDYYRYLAEVASGEKKNSVVEASEAAYKEAFEISKEQMQPTHPIRLGLALNFSVFYYEIQNAPEQACLLAKQAFDDAIAELDTLNEDSYKDSTLIMQLLRDNLTLWTSDQQDEEAGEGN
Take B2: the binding result in assay [3] is “binds”.
